The target of test [1] is bovine pancreatic kallikrein (bovine). The test is described as follows: affinity chromatography on kallikrein-Sepharose.
The target is the same in test [2]. The test is described as follows: affinity chromatography on bovine pancreatic kallikrein-Sepharose.

Results are given in words; binding and its absence hold for the method and conditions named. Binding calls can cover weak binding; strength is not graded here.

B1: recombinant placental bikunin (1-170) from baculovirus / Sf9 cells (protein)
chain: ADRERSIHDFCLVSKVVGRCRASMPRWWYNVTDGSCQLFVYGGCDGNSNNYLTKEECLKKCATVTENATGDLATSRNAADSSVPSAPRRQDSEDHSSDMFNYEEYCTANAVTGPCRASFPRWYFDVERNSCNNFIYGGCRGNKNSYRSEEACMLRCFRQQENPPLPLGSK
modifications: asparagine 30 silent in sequencing, consistent with glycosylation
B1: in test [1], the binding result is listed as “binds”.

B2: native human placental bikunin isolated from human placenta (protein)
chain: ADRERSIHDFCLVSKVVGRCRASMPRWWYNVTDGSCQLFVYGGCDGNSNNYLTKEECLKKCATVTENATGDLATSRNAADSSVPSAPRRQDSEDHSSDMFNYEEYCTANAVTGPCRASFPRWYFDVERNSCNNFIYGGCRGNKNSYRSEEACMLRCFRQQENPPLPLGSKVVVLAGAVS
modifications: asparagine 30 silent in sequencing, likely glycosylated
As for B2, the binding result in test [2] is given as “binds”.

These data come from patent EP1752538A1.
